Data taken from PMC6160458.
No constants are given. Whether binding was seen depends on the method and setting. In cells and extracts the contact can be indirect. A yes stands for co-enrichment or nearness to the bait. Other partners may have been found. A no says only that the protein was not detected with the bait.

Protein sequences, listed by entry. Tags and fused reporters are not part of them.
UniProt Q22799: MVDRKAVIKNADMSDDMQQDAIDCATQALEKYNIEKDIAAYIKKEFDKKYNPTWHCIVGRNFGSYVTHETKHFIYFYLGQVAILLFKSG
UniProt Q21215: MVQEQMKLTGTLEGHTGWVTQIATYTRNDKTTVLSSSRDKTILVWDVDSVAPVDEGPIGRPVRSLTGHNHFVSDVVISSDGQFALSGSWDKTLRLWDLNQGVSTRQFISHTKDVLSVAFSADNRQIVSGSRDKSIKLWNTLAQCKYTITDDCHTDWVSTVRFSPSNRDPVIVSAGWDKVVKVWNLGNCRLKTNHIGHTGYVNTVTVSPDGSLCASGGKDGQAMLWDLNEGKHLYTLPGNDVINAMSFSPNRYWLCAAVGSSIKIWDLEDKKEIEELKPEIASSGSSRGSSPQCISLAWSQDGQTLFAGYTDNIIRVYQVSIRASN

Molecular target: DLC-1::GFP (dynein light chain 1 fused to GFP) (C. elegans) (UniProt Q22799)
Assay: affinity purification with mass spectrometry; pull-down of DLC-1::GFP repeated, bound proteins analyzed by mass spectrometry

Row | Molecule | binding
1 | RACK-1(K04D7.1) (from UniProt Q21215 1-325) | binds
2 | SAO-1(R10D12.14) (protein, UniProt C6KRN1 1-245) MHKNGNNGPVIDTKWHYLGPDSEKYGPYMSKDMLFWLQAGYFNDGLQLKTENEPNYHTLGEWSQLLGTHPFSMPVHSLDATIAQMNSMRPHGAMMMVPPGLQNQFQPPMPMRFPPFLPMPLLHQMNQNGPPMGAQMHSQPPSEPIDAGSLSHTPDSENETRLNEQTLQQPPSWLIALGLAGHGRKPHHHQQILAHQHIPQMQHANVATDQVVMKSVECQTEPVEISKEQASRVLSELLGQMVIIN | binds
3 | DPF-2(C27C12.7) (protein, UniProt Q18253 1-829) MENDNYDVEEQGCSVFNGKHGYFARSCCVVFILIICVIFVFSVIFTFMQNPINLNSDNGFNQTSGNTSSLEATTLKPKFSSLMTTTRRFTFEQLFSGKQFLVDYYDYIWLPDGSFVQMNDDFTIRKQMKKIPLGSSVAEPFFNNGEYVKALSSNMKYAYGSKKVNELWRHSAEYLYHIVKINNKTVSTEQWHVGPEENSLIQAFYWNPNASSNDFVYVHNYNLYYQKDPEKPDGAIQLTVGGSTFNRFGLANWLYEEEILEASSAVWWSPSGRYVSYLRFDDREVNRIFLPKYTDDDSYVEYFELPYPKAGVQNNTLVTQYIWDSENHKIVETAPPNELSAANGDYYVLTNKWITMPRNGSDLGEERLVTVWANRDQNHVYFSLCNEQDCVMALSFQFSIDNRQLWVSPKDVRGVFPTETGFLTVLPHKHDDGNIYNHVAHVELDGTGTGKITKWIGENFDVILVLGYSSKIDALTFSAYGDGVGEFSTYIVREAMYSNKKTTLQKVTDQFEDCKTLGSQSADPTGQRIVVQCEKPFDNTRLYLVDVVDTTKKIMLEGGTKAVIPFDVPNMKFGKLKLPSGIDGHYMMLTPANLLDGAKIPLLLDIYGGPDSKQVFQKTPTAHAIQIVSQYDIAYARIDVRGTGGRGWDVKEAVYRKLGDAEVVDTLDMIRAFINTFGFIDEDRIAVMGWSYGGFLTSKIAIKDQGELVKCAISIAPVTDFKYYDSAYTERYLGQPAENLQGYINTNVIPHARNVTNVKYLLAHGERDDNVHYQNSARWSEALQQNGIHFTQLVYANEAHSLSHKLFHLYGEVQRFLMNDCFKSNLDLL | binds
4 | CED-4 (Apaf1) (protein, UniProt P30429 1-549) MLCEIECRALSTAHTRLIHDFEPRDALTYLEGKNIFTEDHSELISKMSTRLERIANFLRIYRRQASELGPLIDFFNYNNQSHLADFLEDYIDFAINEPDLLRPVVIAPQFSRQMLDRKLLLGNVPKQMTCYIREYHVDRVIKKLDEMCDLDSFFLFLHGRAGSGKSVIASQALSKSDQLIGINYDSIVWLKDSGTAPKSTFDLFTDILLMLKSEDDLLNFPSVEHVTSVVLKRMICNALIDRPNTLFVFDDVVQEETIRWAQELRLRCLVTTRDVEISNAASQTCEFIEVTSLEIDECYDFLEAYGMPMPVGEKEEDVLNKTIELSSGNPATLMMFFKSCEPKTFEKMAQLNNKLESRGLVGVECITPYSYKSLAMALQRCVEVLSDEDRSALAFAVVMPPGVDIPVKLWSCVIPVDICSNEEEQLDDEVADRLKRLSKRGALLSGKRMPVLTFKIDHIIHMFLKHVVDAQTIANGISILEQRLLEIGNNNVSVPERHIPSHFQKFRRSSASEMYPKTTEETVIRPEDFPKFMQLHQKFYDSLKNFACC | no binding
